Source: paper PMC6540285, “Evaluation of Protein Kinase Inhibitors with PLK4 Cross-Over Potential in a Pre-Clinical Model of Cancer” (International Journal of Molecular Sciences, 2019)
Where two headings read alike, the source gives them in different places.

What was measured:
Assay type in all cases: cell-based
D283 cells [1] = conditions: D283, read-out: MTT: IC50 of the proliferation assay
DAOY cells [2] = conditions: Homo sapiens, read-out: MTT: IC50 of the proliferation assay
D283 cells [3] = test: PrestoBlue Cell Viability assay; conditions: read-out: PB: IC50 of the PrestoBlue Viability assay
Experimental: (§1) Cell viability was assessed using the Presto Blue™ Cell Viability reagent (Thermo Fisher Scientific, Carlsbad, CA, USA) following the manufacturer’s instructions. Cells were plated in 96-well plates at the same densities described above for the proliferation assay. The fluorescence was measured after 24, 48, 72, and 96 h at concentrations ranging from 0.001 to 10 µM of the inhibitor. All assays were performed in triplicate.

DAOY cells [4] = test: PrestoBlue Cell Viability assay; conditions: Homo sapiens, read-out: PB: IC50 of the PrestoBlue Viability assay
Experimental: as §1

MON cells = test: PrestoBlue Cell Viability assay; conditions: read-out: PB: IC50 of the PrestoBlue Viability assay
Experimental: as §1

CNC(=O)c1ccccc1Sc1ccc2c(/C=C/c3ccccn3)n[nH]c2c1 [axitinib]
IC50 (D283 cells [1]): 0.000394 µM
IC50 (DAOY cells [2]): 1.15 µM
IC50 (D283 cells [3]): 0.000918 µM
IC50 (DAOY cells [4]): 1.43 µM
IC50 (MON cells): 4.5 µM
